Test results published in the supplement of paper PMC12889115.
Some of the results follow. Values are raw readings; no control value is given beside them.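 Primary screen: polymyxin B was added at a level permeabilizing Salmonella outer membranes while sparing inner membranes. DMSO wells, both with and without polymyxin B, established maximum growth. Plate-to-plate variation meant each plate was ranked on its own, and the lowest-OD600 compounds were selected as hits.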

System: Salmonella enterica serovar Typhimurium SL1344
Test: bacterial growth OD600 after 18 h with compound and polymyxin B; higher = more bacterial growth (less inhibition)
Settings: 50 µM, Mueller-Hinton broth

In the case of `OCc1ccc(CN2CCc3[nH]nc(C(c4ccccc4)c4ccccc4)c3C2)o1`, the “bacterial growth OD600” value (polymyxin B 0.75 µg/mL) is reported as 0.847.

`COCC1CCN(C(=O)CCc2nnc(C3(c4ccc(Cl)cc4)CCC3)o2)C1` (stereo not drawn) was tested, and the “bacterial growth OD600” value (polymyxin B 1 µg/mL) was 0.783.

For `Cc1c(C(C)NCc2ccc(OC(C)C)c(CO)c2)cnn1-c1ccccc1` (stereo not drawn), the “bacterial growth OD600” value (polymyxin B 1 µg/mL) was 0.933.

With `COc1ccc(-c2ncc(CN3CCC(CO)(Cc4cccc(OC)c4)CC3)cn2)cc1` the “bacterial growth OD600” value (polymyxin B 1 µg/mL) was 0.965.

In the case of `Cc1ccccc1-n1ncc(C(C)NC(=O)Nc2ccccc2F)c1C` (stereo not drawn), the “bacterial growth OD600” value (polymyxin B 1 µg/mL) is reported as 0.902.

`COc1ccc(CN2CCN(Cc3cnc(C)s3)CC2CCO)cc1C` (stereo not drawn) was tested, and the “bacterial growth OD600” value (polymyxin B 1 µg/mL) was 1.09.

`O=C(NC1CCCC1)c1cc(CN2CCOCC2)on1` was tested, and the “bacterial growth OD600” value (polymyxin B 1 µg/mL) was 1.02.

In the case of `C=CCNc1ccc(C(=O)NCc2nc(CC)cs2)cn1`, the “bacterial growth OD600” value (polymyxin B 1 µg/mL) is reported as 0.913.

In the case of `COCCO[C@H]1[C@H](NC(=O)C(C)C)c2ccccc2C12CCN(C(=O)c1cc(C(C)C)nn1C)CC2`, the “bacterial growth OD600” value (polymyxin B 0.75 µg/mL) is reported as 0.91.

In the case of `O=C(Cn1nnnc1CN1CCCC1)N1CCN(c2ccc(F)cc2)CC1`, the “bacterial growth OD600” value (polymyxin B 0.75 µg/mL) is reported as 0.726.

In the case of `O=C(CCC1CCN(C(=O)CC2CCC(=O)N2)CC1)NCc1cccc(Cl)c1` (stereo not drawn), the “bacterial growth OD600” value (polymyxin B 0.75 µg/mL) is reported as 0.79.

For `O=C1O[C@@H]2CN(c3nc4ccccc4s3)C[C@@H]2N1Cc1ccccn1`, the “bacterial growth OD600” value (polymyxin B 1 µg/mL) was 1.14.

With `Nc1ncc(CN2CCCC(CNC(=O)c3cccc4ccccc34)C2)cn1` (stereo not drawn) the “bacterial growth OD600” value (polymyxin B 0.75 µg/mL) was 0.855.

In the case of `C=CCN1C(=O)CCC1CCNCCOc1ccc(F)cc1` (stereo not drawn), the “bacterial growth OD600” value (polymyxin B 0.75 µg/mL) is reported as 1.02.

With `CN(C)c1ncccc1CNCc1cccc(OC2CCCC2)c1` the “bacterial growth OD600” value (polymyxin B 1 µg/mL) was 0.935.

For `O=C1N(Cc2ccc(F)c(F)c2)CCCC1(O)CNCc1cccnc1` (stereo not drawn), the “bacterial growth OD600” value (polymyxin B 1 µg/mL) was 1.

`Cn1ccnc1CN1CCN(c2nc3nonc3nc2NCc2cccs2)CC1` was tested, and the “bacterial growth OD600” value (polymyxin B 1 µg/mL) was 0.958.

With `Cc1ccc(CN(C)C(=O)C2CCC(=O)N(C3CCCCCC3)C2)cc1` (stereo not drawn) the “bacterial growth OD600” value (polymyxin B 1 µg/mL) was 0.58.

For `CCN(CC)C(=O)c1coc(COc2cccc(F)c2)n1`, the “bacterial growth OD600” value (polymyxin B 1 µg/mL) was 1.06.

For `COc1ccc(CN2CCN(Cc3cnn(C)c3)CC2CCO)cc1C` (stereo not drawn), the “bacterial growth OD600” value (polymyxin B 0.75 µg/mL) was 0.824.

In the case of `CCc1ccc(CN(C)c2nncc(-c3cccc(F)c3)n2)cc1`, the “bacterial growth OD600” value (polymyxin B 0.75 µg/mL) is reported as -0.004.

In the case of `O=C(CCCc1ccc(Cl)cc1)N1CCOc2ccc(CN3CCCC3)cc2C1`, the “bacterial growth OD600” value (polymyxin B 0.75 µg/mL) is reported as 0.55.

`O=C(c1ccc(OC2CCN(Cc3c[nH]c4ccccc34)CC2)cc1)N1CCCC1` was tested, and the “bacterial growth OD600” value (polymyxin B 0.75 µg/mL) was 0.626.

For `Cc1cccc(-c2cccc(NC(=O)C3CCCN3Cc3[nH]cnc3C)c2)c1` (stereo not drawn), the “bacterial growth OD600” value (polymyxin B 0.75 µg/mL) was 0.814.

In the case of `COc1ccc(CN2CCN(Cc3ccc(O)cc3)CC2CCO)c(C)c1C` (stereo not drawn), the “bacterial growth OD600” value (polymyxin B 1 µg/mL) is reported as 0.936.

With `CCC(Nc1ccc(-c2nc(COc3ccccc3)no2)cn1)c1ccncc1` (stereo not drawn) the “bacterial growth OD600” value (polymyxin B 1 µg/mL) was 0.01.

In the case of `COc1ccc(-c2cc(F)cc3c2OC(CNC(=O)c2cccc(Cn4nc(C)cc4C)c2)C3)nn1` (stereo not drawn), the “bacterial growth OD600” value (polymyxin B 0.75 µg/mL) is reported as 0.98.

With `COc1ccccc1C(=O)Nc1ccnn1C1CCN(C(=O)c2ccccn2)CC1` the “bacterial growth OD600” value (polymyxin B 1 µg/mL) was 0.944.

`OCC1CCCCN1Cc1cn(Cc2ccccc2)nc1-c1ccc2c(c1)OCO2` (stereo not drawn) was tested, and the “bacterial growth OD600” value (polymyxin B 0.75 µg/mL) was 0.91.

`Cc1oc(-c2cccc(C(F)(F)F)c2)nc1CN(Cc1ccccc1)C[C@@H]1CCC(=O)N1` was tested, and the “bacterial growth OD600” value (polymyxin B 0.75 µg/mL) was -0.001.

In the case of `COc1ccc(-c2noc(CN3CCC(C(=O)N4CCCC4)CC3)n2)cc1`, the “bacterial growth OD600” value (polymyxin B 1 µg/mL) is reported as 0.894.

For `COc1ccc(CC2(CCC(=O)N3CCCCC3C)CCC(=O)N2)c(F)c1` (stereo not drawn), the “bacterial growth OD600” value (polymyxin B 0.75 µg/mL) was 0.802.

With `CC(=O)c1ccccc1C(=O)N1CCCC(Nc2ccc(C(C)C)cc2)C1` (stereo not drawn) the “bacterial growth OD600” value (polymyxin B 1 µg/mL) was 0.917.
